No constants are given. Whether binding was seen depends on the method and setting. In cells and extracts the contact can be indirect. These calls come from enrichment with a bait or labelling near it, and not all partners need be listed. Sequences can lack the tags named with a protein.
Biological target: T1, ZMAT3-3xFLAG-2xHA (UniProt Q9HA38)
T1 sequence: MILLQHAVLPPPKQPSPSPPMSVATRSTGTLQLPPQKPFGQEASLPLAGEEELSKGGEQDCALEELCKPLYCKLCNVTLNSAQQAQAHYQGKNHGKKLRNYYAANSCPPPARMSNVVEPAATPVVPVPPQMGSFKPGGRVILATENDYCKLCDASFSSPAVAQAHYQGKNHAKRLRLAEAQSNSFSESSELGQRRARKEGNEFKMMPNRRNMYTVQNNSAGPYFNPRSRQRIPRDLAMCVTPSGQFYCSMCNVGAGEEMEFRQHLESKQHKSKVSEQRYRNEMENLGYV
Assay: affinity purification with mass spectrometry; anti-FLAG M2 magnetic beads, whole cell lysates of untreated or doxycycline-treated ZMAT3-FLAG-HA HCT116 cells; 10 mM Tris/Cl pH 7.5, 150 mM NaCl, 0.5 mM EDTA, 0.5 % NP40; overnight at 4°C; beads processed after washing without elution

Chains of the proteins cited; added tags and fusions are not shown.
UniProt P05412: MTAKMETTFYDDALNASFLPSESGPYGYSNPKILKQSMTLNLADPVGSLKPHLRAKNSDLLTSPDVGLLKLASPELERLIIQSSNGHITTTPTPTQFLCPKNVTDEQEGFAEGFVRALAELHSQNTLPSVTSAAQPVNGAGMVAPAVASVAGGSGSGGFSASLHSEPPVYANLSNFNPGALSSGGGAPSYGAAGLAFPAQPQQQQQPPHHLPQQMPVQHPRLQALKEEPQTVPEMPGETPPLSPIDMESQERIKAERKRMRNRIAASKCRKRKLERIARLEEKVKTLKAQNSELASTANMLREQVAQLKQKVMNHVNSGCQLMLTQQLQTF

binding: binds
Substance: JUN (c-Jun) (from UniProt P05412 1-331)

Source: article doi:10.1101/2025.05.12.653341
